From paper PMC7819943, “Rice protein-binding microarrays: a tool to detect cis-acting elements near promoter regions in rice”
The other results are listed elsewhere or left out.

By UniProt entry, the sequences of proteins in these tests, tags left out.
UniProt Q0JBA9, entry or part of it: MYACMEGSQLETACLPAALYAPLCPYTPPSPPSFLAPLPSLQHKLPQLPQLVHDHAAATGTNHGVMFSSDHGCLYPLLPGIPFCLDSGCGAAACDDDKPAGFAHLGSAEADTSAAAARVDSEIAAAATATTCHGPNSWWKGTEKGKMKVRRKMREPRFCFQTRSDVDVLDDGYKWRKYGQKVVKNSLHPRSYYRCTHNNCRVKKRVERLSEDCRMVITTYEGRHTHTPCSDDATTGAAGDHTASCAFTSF

Biological target: OsWRKY34 (Oryza sativa, UniProt Q0JBA9 1-250)
Test: protein-binding microarray (RPBM); PBS, 2% BSA, 51.3 ng/ul salmon testes DNA, 50 uM zinc acetate, 200 nM TF, 25 C, 1 h; high values mean tight binding
Conditions: protein: recombinant; tags: N-terminal polyhistidine and DsRed monomer fusion (pET32a); label: CyDye5-dUTP incorporated in the synthesized complementary strand; 3' TTTTT single-stranded linker to array surface; dsDNA, one strand shown
Outline: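 Binding signal is defined as the fluorescence intensity of each feature in arbitrary units, read on an Axon 4000B scanner. Transcription factors with N-terminal polyhistidine and DsRed fusions came from E. coli BL21-CodonPlus and were purified on Ni–NTA. They were incubated at 200 nM for 1 h at 25 °C on a custom Agilent array that had been made double-stranded with Cy5-dUTP, with 50 µM zinc acetate present, and the array was washed.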

**Q.** How did the binding signal turn out when “TCATATCTTCTCTTCCATCTTATCCTCTCCCCACCACTCACGGAGTCACCTAGTGCAG” was run?
**A.** The binding signal was 8840 fluorescence intensity (a.u.).

**Q.** “TTTTCTTTCTTTTTCTTTTTTTTTATCGTTTTGTTCTTCTCGGAGTCACCTAGTGCAG” was tested. Which binding signal did it give?
**A.** Its binding signal is 10500 fluorescence intensity (a.u.).

**Q.** “AACGCAACCTGATTAGTTTAAGCCACCGGAATGCTGTTCGCGGAGTCACCTAGTGCAG” was tested. Which binding signal did it give?
**A.** Its binding signal is 8440 fluorescence intensity (a.u.).

**Q.** Which binding signal does the source give for “AGCGGAAATCTATTCAACTCTGATCTTGTTTTTCTTCCCGCGGAGTCACCTAGTGCAG” here?
**A.** Its binding signal is 9330 fluorescence intensity (a.u.).

**Q.** Which binding signal does the source give for “GCTGCCTCATTTGCACTTGGTCAATTTGCTGAACACTTGCCGGAGTCACCTAGTGCAG” here?
**A.** The binding signal was 8820 fluorescence intensity (a.u.).

**Q.** With “CCGCCCGAATTTCACTCCTTCCCTATATACGCAAGCTTCCCGGAGTCACCTAGTGCAG” as the sequence, how does the binding signal read?
**A.** The binding signal was 8970 fluorescence intensity (a.u.).

**Q.** For “GATTACCTGATTACCTGATTACCTGTGTCACTGACAACTCCGGAGTCACCTAGTGCAG”, which binding signal is on record?
**A.** Its binding signal is 8310 fluorescence intensity (a.u.).

**Q.** With “CTTAGATGATGCTTGTTTTTCTTTCTTTTGGTTTGTTTACCGGAGTCACCTAGTGCAG” as the sequence, how does the binding signal read?
**A.** The binding signal was 8950 fluorescence intensity (a.u.).

**Q.** With “ATCGTCGTCTCGGTCGTCGTTGTCGTCGTCCCGGTCTTCGCGGAGTCACCTAGTGCAG” as the sequence, how does the binding signal read?
**A.** Its binding signal is 10500 fluorescence intensity (a.u.).

**Q.** Which binding signal does the source give for “CGTTGTCGCCACCACCACCGCCGCCGTCGCCACAACTCCGCGGAGTCACCTAGTGCAG” here?
**A.** Its binding signal is 20500 fluorescence intensity (a.u.).

**Q.** For “TATATTAGACGTTCGACCTGTTTAGTTGTTGTTTAAGCTCCGGAGTCACCTAGTGCAG”, which binding signal is on record?
**A.** Its binding signal is 9440 fluorescence intensity (a.u.).

**Q.** For “GCATCCCTGCATTACAAAACCATTCCGTGTCTGTCTACTACGGAGTCACCTAGTGCAG”, which binding signal is on record?
**A.** Its binding signal is 8290 fluorescence intensity (a.u.).

**Q.** For “CCGTCCAAAACTACCCATCTGCCACGTGGCACCCGCCCATCGGAGTCACCTAGTGCAG”, which binding signal is on record?
**A.** The binding signal was 8510 fluorescence intensity (a.u.).

**Q.** For “AAAATTAACAATAATCCTGCCCTGTCTGGCCACTTCCTGTCGGAGTCACCTAGTGCAG”, which binding signal is on record?
**A.** Its binding signal is 8280 fluorescence intensity (a.u.).

**Q.** How did the binding signal turn out when “ATGTGCAGGTGGTGGTGGGGCTTGCTTATCAGCTAAAACCCGGAGTCACCTAGTGCAG” was run?
**A.** Its binding signal is 10000 fluorescence intensity (a.u.).

**Q.** “ACTGCTATCTTTGTCCCATAATATTTGTATTTTTAGGATTCGGAGTCACCTAGTGCAG” was tested. Which binding signal did it give?
**A.** The binding signal was 8030 fluorescence intensity (a.u.).

**Q.** How did the binding signal turn out when “ATATATTTTCATATGTTATAATTTTGTTGCTACAAACTCTCGGAGTCACCTAGTGCAG” was run?
**A.** The binding signal was 8040 fluorescence intensity (a.u.).

**Q.** For “GAAATTCTCGTAATTATGAATCATCCCGTACTATTCGCAGCGGAGTCACCTAGTGCAG”, which binding signal is on record?
**A.** Its binding signal is 8280 fluorescence intensity (a.u.).

**Q.** With “TGTTCATCCGTCGTCAGACCTGTTACCAGATCTGGACTTCCGGAGTCACCTAGTGCAG” as the sequence, how does the binding signal read?
**A.** The binding signal was 9690 fluorescence intensity (a.u.).

**Q.** How did the binding signal turn out when “CCACCGGCACATGTCCTCATTCTCGCGCCATGGTCCCTGACGGAGTCACCTAGTGCAG” was run?
**A.** The binding signal was 10500 fluorescence intensity (a.u.).

**Q.** Which binding signal does the source give for “GGGTAAGTGATCAATGTTTTTCTTTACCGCAGCTTGTTTTCGGAGTCACCTAGTGCAG” here?
**A.** The binding signal was 11900 fluorescence intensity (a.u.).

**Q.** Which binding signal does the source give for “ATGCTCAATGCCACGACCACATCACGCCAGCCACCCACTGCGGAGTCACCTAGTGCAG” here?
**A.** The binding signal was 8180 fluorescence intensity (a.u.).

**Q.** With “TTGACCCTATCTCCTCTTCGCCGCTTTATCCTGCCCATTTCGGAGTCACCTAGTGCAG” as the sequence, how does the binding signal read?
**A.** Its binding signal is 11700 fluorescence intensity (a.u.).

**Q.** With “CATTGTGTTGGATTGCACTGTTTTTATTTTCAAGATGTAACGGAGTCACCTAGTGCAG” as the sequence, how does the binding signal read?
**A.** Its binding signal is 10300 fluorescence intensity (a.u.).

**Q.** With “GTTCTGTTCTAATTCTCACGCTAGTTCATGTGCCACACCTCGGAGTCACCTAGTGCAG” as the sequence, how does the binding signal read?
**A.** Its binding signal is 11700 fluorescence intensity (a.u.).

**Q.** Which binding signal does the source give for “CCCTCTCATTATTTATTTCCTCGTATCTCCAGCCGCACACCGGAGTCACCTAGTGCAG” here?
**A.** The binding signal was 8130 fluorescence intensity (a.u.).

**Q.** How did the binding signal turn out when “GACTCGTTAAGTTCTTATATTGTGGAATCCTGTCTTTTAACGGAGTCACCTAGTGCAG” was run?
**A.** Its binding signal is 8740 fluorescence intensity (a.u.).

**Q.** With “CATCTGTATTTCCAAATTTGTATATTTACCATTTGTGTTTCGGAGTCACCTAGTGCAG” as the sequence, how does the binding signal read?
**A.** The binding signal was 9320 fluorescence intensity (a.u.).

**Q.** For “TGACGACGCTTATCTCGTTATCTCGTTTGTTTGTCATATGCGGAGTCACCTAGTGCAG”, which binding signal is on record?
**A.** The binding signal was 12500 fluorescence intensity (a.u.).

**Q.** “AGCGGTGTGTTGAGATTGGTAGCTGAAAGGCCTCTTCTTCCGGAGTCACCTAGTGCAG” was tested. Which binding signal did it give?
**A.** The binding signal was 8320 fluorescence intensity (a.u.).

**Q.** For “ACCACTACGCCTCCACCTCCACACCTCACCTCCTCCACCTCGGAGTCACCTAGTGCAG”, which binding signal is on record?
**A.** The binding signal was 10400 fluorescence intensity (a.u.).

**Q.** How did the binding signal turn out when “GGGGCCCACATGTCATTCTCACCGACGCCCCATCCCTTCTCGGAGTCACCTAGTGCAG” was run?
**A.** Its binding signal is 8110 fluorescence intensity (a.u.).

**Q.** Which binding signal does the source give for “CTGTAAACATATCCTCATTTTGGTTCGTCTATCAGTCACGCGGAGTCACCTAGTGCAG” here?
**A.** Its binding signal is 9680 fluorescence intensity (a.u.).

**Q.** “ATGCCTTGTACTTCCCACCTAACCAACTGTGCAGAAAGATCGGAGTCACCTAGTGCAG” was tested. Which binding signal did it give?
**A.** Its binding signal is 8510 fluorescence intensity (a.u.).

**Q.** “CTATCGTTATTTACACGTGATTTAAATAGTTATGAATTTTCGGAGTCACCTAGTGCAG” was tested. Which binding signal did it give?
**A.** Its binding signal is 8140 fluorescence intensity (a.u.).

**Q.** For “AAGTAATCGGCGCCGTCTTTTCTTCCTTCACGCCAGCATCCGGAGTCACCTAGTGCAG”, which binding signal is on record?
**A.** The binding signal was 8620 fluorescence intensity (a.u.).

**Q.** With “TTTGATTTTAATTCTAGGGGTAGTATATTTGCCGGCTTTGCGGAGTCACCTAGTGCAG” as the sequence, how does the binding signal read?
**A.** Its binding signal is 8350 fluorescence intensity (a.u.).

**Q.** With “ATGGTTTTCCGCATCCAACTTTGATCATCCATCTTATTTACGGAGTCACCTAGTGCAG” as the sequence, how does the binding signal read?
**A.** Its binding signal is 12800 fluorescence intensity (a.u.).

**Q.** For “TATCCATTTTTCCCATCACCTATAGCCCCTACCACACTTCCGGAGTCACCTAGTGCAG”, which binding signal is on record?
**A.** Its binding signal is 9420 fluorescence intensity (a.u.).

**Q.** Which binding signal does the source give for “AGTTCACCTCCCTAACCTTTGCCTCTCACTCACACAAAGTCGGAGTCACCTAGTGCAG” here?
**A.** Its binding signal is 8050 fluorescence intensity (a.u.).

**Q.** With “ACCCCACCAAGAACACAGCCTAAATTTTGATATTTATGATCGGAGTCACCTAGTGCAG” as the sequence, how does the binding signal read?
**A.** The binding signal was 8720 fluorescence intensity (a.u.).

**Q.** For “AACCAAAATGCATTTTCATATCCACTGTTTGTCTGTGTTGCGGAGTCACCTAGTGCAG”, which binding signal is on record?
**A.** Its binding signal is 9110 fluorescence intensity (a.u.).

**Q.** For “TTTATTTTATTTTATACTGATGCATGTTAACTTACTGTGCCGGAGTCACCTAGTGCAG”, which binding signal is on record?
**A.** Its binding signal is 8840 fluorescence intensity (a.u.).

**Q.** With “ACTATGCACCAGTACAATTTACAGCAGTATTAATGCTTACCGGAGTCACCTAGTGCAG” as the sequence, how does the binding signal read?
**A.** Its binding signal is 8550 fluorescence intensity (a.u.).

**Q.** “TCAGAACAGACTCATAAACCATTTGTCAGACTTTTCCTACCGGAGTCACCTAGTGCAG” was tested. Which binding signal did it give?
**A.** Its binding signal is 9320 fluorescence intensity (a.u.).

**Q.** How did the binding signal turn out when “TCCATACGCAGGTACTCCTCCTACTAATTAGTAGTGCTGTCGGAGTCACCTAGTGCAG” was run?
**A.** The binding signal was 8300 fluorescence intensity (a.u.).

**Q.** With “TGTCCGCCACTCCACCCGATCACAGAAAACACACGCGCGTCGGAGTCACCTAGTGCAG” as the sequence, how does the binding signal read?
**A.** The binding signal was 8750 fluorescence intensity (a.u.).

**Q.** For “TCGCGGAACCACCACATCATCTCATCAGCCACCAGTTAGCCGGAGTCACCTAGTGCAG”, which binding signal is on record?
**A.** The binding signal was 8030 fluorescence intensity (a.u.).

**Q.** For “ATTCTCGGTCGATCGGTGTTCGTTTTCGACTTTCTACCGGCGGAGTCACCTAGTGCAG”, which binding signal is on record?
**A.** Its binding signal is 8400 fluorescence intensity (a.u.).

**Q.** With “ATTATGTGTCTAAGGTATGTGGGTTCAGTGGTAAATCTTTCGGAGTCACCTAGTGCAG” as the sequence, how does the binding signal read?
**A.** Its binding signal is 8500 fluorescence intensity (a.u.).

**Q.** For “TCTGGTTTTGTAATTAGGGGACGATTTTGTATCTCGATGACGGAGTCACCTAGTGCAG”, which binding signal is on record?
**A.** The binding signal was 8500 fluorescence intensity (a.u.).

**Q.** For “CGAGTTTGTTTCCTGCTGTCTGTGCGATAATGTTTTCTGCCGGAGTCACCTAGTGCAG”, which binding signal is on record?
**A.** Its binding signal is 9000 fluorescence intensity (a.u.).

**Q.** “GCTGGTCTTTGGGCTTGTGTGCGTGTTCCAACTGTCGCATCGGAGTCACCTAGTGCAG” was tested. Which binding signal did it give?
**A.** The binding signal was 8180 fluorescence intensity (a.u.).

**Q.** With “GTATTGTGTATTGCAAGGCAAATTGTTTGTTTTTGAGCGACGGAGTCACCTAGTGCAG” as the sequence, how does the binding signal read?
**A.** The binding signal was 9040 fluorescence intensity (a.u.).
